Measurements reported in article doi:10.1101/2024.11.11.622870.
These are yes or no findings as the source states them, for the method shown. Binding calls can cover weak binding; strength is not graded here. Where a sequence is shown, tags or fusion partners need not be part of it.

Molecular target: T1, GFP-FKBP-Rab25 (UniProt P57735)
T1 sequence: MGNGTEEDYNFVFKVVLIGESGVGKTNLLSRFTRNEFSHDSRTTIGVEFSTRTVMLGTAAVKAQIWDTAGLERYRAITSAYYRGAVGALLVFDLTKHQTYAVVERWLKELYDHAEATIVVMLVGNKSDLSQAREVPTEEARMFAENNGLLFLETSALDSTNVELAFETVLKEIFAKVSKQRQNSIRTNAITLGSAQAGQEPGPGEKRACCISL
Assay: knock-sideways relocalisation

FMNL1 (from UniProt O95466-2)
binding: binds weakly
